# Reference: article PMC7862700
# Protein sequences, listed by entry. Tags and fused reporters are not part of them. Lines headed by an entry give the natural chain unless they say otherwise; changes in a name come on top.
# UniProt Q01892: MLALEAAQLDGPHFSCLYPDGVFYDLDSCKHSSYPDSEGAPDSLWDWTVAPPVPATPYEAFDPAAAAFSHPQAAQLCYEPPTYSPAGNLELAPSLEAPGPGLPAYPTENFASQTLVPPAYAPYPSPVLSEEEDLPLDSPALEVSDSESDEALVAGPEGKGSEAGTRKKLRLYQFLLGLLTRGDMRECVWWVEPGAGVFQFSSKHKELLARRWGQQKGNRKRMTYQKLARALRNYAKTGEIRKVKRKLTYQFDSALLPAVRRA
# Only a part is listed here, and it is no random draw. At the low end of the ranking the order means little.
# Biological target: T1, EHF (UniProt Q9NZC4)
# T1 sequence: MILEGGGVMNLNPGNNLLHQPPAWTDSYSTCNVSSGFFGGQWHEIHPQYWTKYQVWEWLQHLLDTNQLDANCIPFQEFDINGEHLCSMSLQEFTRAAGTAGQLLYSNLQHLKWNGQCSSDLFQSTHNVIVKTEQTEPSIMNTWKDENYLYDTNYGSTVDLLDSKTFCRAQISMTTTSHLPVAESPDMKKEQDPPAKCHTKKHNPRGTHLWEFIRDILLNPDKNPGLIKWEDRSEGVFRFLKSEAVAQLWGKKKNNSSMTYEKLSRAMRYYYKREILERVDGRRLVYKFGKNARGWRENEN
# Assay: DAPPL (digital affinity profiling via proximity ligation, sequencing)
# Conditions: 10 mM Tris-HCl pH 7.5, 50 mM NaCl, 1 mM DTT, 4% glycerol, room temperature, 30 min; GST-TFs on glutathione beads, 16-mer random dsDNA library, 0.1% …; high values mean tight binding; double strand, one strand shown; scale: fold enrichment (6-mer frequency, TF over GST control)
row,Sequence,binding signal
1,AATGTT,1.56
2,CAATCT,1.17
3,CGACCA,1.28
4,TCTTTC,1.43
5,CTCATA,1.27
6,ACCCTG,0.996
7,TCTGTA,1.15
8,TCTAGG,0.979
9,TCACAA,1.11
10,ACTCAC,1.24
11,CAATTA,1.07
12,TCATTA,1.09
13,TCAACT,1.35
14,AACTTG,1.14
15,TGGCAC,1.26
16,CTACTA,1.33
17,CACTTT,1.36
18,ATCTCA,1.25
19,TGGACA,1.05
20,CAAAGC,0.986
21,AATTAT,1.23
22,CGCTTA,1.18
23,GTACCT,1.29
24,CTATCA,0.991
25,AACGCC,1.15
26,ATATAG,1.22
27,GATAGC,1.1
28,CCTTCT,1.67

# Biological target: SPIB (UniProt Q01892)
# Assay: as above
# Conditions: 10 mM Tris-HCl pH 7.5, 50 mM NaCl, 1 mM DTT, 4% glycerol, room temperature, 30 min; GST-TFs on glutathione beads, 16-mer random dsDNA library, 0.1% …; high values mean tight binding; double strand, one strand shown; scale: fold enrichment (6-mer frequency, TF over GST control)
row,Sequence,binding signal
1,ACTCGT,1.26
2,TTACAG,1.29
3,TGCATA,1.11
4,CGACCA,1.16
5,CTCATA,1.48
6,AAAACC,1.19
7,TCTAGG,1.11
8,TCAACT,1.3
9,TGCACC,1.15
10,CCGGCC,1.18
11,ATCTCA,1.19
12,TGGACA,1.08
13,AACTGA,1.15
14,CACCCG,1.28
15,CTATCA,1.05
16,CGGAAA,2.22
17,CCTCAA,1.42
18,GATAGC,0.984
19,TTTTGG,1.63
20,CCTTCT,1.56
